No constants are given. Whether binding was seen depends on the method and setting. Binding seen in cells or lysates may run through a third protein. Some binding calls cover weakened binding; strength is not graded here. Where a sequence is shown, tags or fusion partners need not be part of it.
Assays:
[1] = molecular target: T1, FLAG-epitope tagged L4-33K protein expressed from the recombinant AdEasy-L4-33K virus (human adenovirus 5 (Ad5, by the plasmid name)) (UniProt P24940); experiment: co-IP; nuclear extract of HEK293 cells infected with AdEasy-L4-33K or AdEasy-GFP (20 hpi, no doxycycline), 60% Buffer D, anti-FLAG M2 affinity gel 2 h at 4°C, eluted with 3xFLAG peptide; SDS-PAGE, colloidal CBB staining, bands identified by mass spectrometry
T1 sequence: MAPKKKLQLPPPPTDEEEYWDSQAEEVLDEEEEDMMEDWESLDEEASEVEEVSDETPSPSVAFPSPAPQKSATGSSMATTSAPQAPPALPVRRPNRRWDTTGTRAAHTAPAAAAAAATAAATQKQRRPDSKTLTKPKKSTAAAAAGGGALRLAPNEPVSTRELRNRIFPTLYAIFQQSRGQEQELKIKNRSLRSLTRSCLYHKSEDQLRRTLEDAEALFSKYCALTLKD

Amino acid sequences for entries named in this document (tags omitted).
UniProt P12956: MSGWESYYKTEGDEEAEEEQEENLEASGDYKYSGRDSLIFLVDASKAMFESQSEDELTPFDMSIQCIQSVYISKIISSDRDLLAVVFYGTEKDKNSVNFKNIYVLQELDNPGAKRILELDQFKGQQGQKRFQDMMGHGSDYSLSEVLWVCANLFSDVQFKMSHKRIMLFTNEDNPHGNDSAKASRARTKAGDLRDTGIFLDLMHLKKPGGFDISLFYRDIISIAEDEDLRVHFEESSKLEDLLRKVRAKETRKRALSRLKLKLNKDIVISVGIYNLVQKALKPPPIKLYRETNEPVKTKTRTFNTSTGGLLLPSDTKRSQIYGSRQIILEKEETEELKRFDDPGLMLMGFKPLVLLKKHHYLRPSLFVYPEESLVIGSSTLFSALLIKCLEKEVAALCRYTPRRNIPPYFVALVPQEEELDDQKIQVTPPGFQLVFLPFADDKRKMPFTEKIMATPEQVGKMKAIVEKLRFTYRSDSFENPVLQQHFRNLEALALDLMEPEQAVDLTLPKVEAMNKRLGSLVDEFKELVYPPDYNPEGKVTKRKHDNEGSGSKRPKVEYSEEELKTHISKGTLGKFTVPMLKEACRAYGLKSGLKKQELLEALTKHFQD
UniProt P78527: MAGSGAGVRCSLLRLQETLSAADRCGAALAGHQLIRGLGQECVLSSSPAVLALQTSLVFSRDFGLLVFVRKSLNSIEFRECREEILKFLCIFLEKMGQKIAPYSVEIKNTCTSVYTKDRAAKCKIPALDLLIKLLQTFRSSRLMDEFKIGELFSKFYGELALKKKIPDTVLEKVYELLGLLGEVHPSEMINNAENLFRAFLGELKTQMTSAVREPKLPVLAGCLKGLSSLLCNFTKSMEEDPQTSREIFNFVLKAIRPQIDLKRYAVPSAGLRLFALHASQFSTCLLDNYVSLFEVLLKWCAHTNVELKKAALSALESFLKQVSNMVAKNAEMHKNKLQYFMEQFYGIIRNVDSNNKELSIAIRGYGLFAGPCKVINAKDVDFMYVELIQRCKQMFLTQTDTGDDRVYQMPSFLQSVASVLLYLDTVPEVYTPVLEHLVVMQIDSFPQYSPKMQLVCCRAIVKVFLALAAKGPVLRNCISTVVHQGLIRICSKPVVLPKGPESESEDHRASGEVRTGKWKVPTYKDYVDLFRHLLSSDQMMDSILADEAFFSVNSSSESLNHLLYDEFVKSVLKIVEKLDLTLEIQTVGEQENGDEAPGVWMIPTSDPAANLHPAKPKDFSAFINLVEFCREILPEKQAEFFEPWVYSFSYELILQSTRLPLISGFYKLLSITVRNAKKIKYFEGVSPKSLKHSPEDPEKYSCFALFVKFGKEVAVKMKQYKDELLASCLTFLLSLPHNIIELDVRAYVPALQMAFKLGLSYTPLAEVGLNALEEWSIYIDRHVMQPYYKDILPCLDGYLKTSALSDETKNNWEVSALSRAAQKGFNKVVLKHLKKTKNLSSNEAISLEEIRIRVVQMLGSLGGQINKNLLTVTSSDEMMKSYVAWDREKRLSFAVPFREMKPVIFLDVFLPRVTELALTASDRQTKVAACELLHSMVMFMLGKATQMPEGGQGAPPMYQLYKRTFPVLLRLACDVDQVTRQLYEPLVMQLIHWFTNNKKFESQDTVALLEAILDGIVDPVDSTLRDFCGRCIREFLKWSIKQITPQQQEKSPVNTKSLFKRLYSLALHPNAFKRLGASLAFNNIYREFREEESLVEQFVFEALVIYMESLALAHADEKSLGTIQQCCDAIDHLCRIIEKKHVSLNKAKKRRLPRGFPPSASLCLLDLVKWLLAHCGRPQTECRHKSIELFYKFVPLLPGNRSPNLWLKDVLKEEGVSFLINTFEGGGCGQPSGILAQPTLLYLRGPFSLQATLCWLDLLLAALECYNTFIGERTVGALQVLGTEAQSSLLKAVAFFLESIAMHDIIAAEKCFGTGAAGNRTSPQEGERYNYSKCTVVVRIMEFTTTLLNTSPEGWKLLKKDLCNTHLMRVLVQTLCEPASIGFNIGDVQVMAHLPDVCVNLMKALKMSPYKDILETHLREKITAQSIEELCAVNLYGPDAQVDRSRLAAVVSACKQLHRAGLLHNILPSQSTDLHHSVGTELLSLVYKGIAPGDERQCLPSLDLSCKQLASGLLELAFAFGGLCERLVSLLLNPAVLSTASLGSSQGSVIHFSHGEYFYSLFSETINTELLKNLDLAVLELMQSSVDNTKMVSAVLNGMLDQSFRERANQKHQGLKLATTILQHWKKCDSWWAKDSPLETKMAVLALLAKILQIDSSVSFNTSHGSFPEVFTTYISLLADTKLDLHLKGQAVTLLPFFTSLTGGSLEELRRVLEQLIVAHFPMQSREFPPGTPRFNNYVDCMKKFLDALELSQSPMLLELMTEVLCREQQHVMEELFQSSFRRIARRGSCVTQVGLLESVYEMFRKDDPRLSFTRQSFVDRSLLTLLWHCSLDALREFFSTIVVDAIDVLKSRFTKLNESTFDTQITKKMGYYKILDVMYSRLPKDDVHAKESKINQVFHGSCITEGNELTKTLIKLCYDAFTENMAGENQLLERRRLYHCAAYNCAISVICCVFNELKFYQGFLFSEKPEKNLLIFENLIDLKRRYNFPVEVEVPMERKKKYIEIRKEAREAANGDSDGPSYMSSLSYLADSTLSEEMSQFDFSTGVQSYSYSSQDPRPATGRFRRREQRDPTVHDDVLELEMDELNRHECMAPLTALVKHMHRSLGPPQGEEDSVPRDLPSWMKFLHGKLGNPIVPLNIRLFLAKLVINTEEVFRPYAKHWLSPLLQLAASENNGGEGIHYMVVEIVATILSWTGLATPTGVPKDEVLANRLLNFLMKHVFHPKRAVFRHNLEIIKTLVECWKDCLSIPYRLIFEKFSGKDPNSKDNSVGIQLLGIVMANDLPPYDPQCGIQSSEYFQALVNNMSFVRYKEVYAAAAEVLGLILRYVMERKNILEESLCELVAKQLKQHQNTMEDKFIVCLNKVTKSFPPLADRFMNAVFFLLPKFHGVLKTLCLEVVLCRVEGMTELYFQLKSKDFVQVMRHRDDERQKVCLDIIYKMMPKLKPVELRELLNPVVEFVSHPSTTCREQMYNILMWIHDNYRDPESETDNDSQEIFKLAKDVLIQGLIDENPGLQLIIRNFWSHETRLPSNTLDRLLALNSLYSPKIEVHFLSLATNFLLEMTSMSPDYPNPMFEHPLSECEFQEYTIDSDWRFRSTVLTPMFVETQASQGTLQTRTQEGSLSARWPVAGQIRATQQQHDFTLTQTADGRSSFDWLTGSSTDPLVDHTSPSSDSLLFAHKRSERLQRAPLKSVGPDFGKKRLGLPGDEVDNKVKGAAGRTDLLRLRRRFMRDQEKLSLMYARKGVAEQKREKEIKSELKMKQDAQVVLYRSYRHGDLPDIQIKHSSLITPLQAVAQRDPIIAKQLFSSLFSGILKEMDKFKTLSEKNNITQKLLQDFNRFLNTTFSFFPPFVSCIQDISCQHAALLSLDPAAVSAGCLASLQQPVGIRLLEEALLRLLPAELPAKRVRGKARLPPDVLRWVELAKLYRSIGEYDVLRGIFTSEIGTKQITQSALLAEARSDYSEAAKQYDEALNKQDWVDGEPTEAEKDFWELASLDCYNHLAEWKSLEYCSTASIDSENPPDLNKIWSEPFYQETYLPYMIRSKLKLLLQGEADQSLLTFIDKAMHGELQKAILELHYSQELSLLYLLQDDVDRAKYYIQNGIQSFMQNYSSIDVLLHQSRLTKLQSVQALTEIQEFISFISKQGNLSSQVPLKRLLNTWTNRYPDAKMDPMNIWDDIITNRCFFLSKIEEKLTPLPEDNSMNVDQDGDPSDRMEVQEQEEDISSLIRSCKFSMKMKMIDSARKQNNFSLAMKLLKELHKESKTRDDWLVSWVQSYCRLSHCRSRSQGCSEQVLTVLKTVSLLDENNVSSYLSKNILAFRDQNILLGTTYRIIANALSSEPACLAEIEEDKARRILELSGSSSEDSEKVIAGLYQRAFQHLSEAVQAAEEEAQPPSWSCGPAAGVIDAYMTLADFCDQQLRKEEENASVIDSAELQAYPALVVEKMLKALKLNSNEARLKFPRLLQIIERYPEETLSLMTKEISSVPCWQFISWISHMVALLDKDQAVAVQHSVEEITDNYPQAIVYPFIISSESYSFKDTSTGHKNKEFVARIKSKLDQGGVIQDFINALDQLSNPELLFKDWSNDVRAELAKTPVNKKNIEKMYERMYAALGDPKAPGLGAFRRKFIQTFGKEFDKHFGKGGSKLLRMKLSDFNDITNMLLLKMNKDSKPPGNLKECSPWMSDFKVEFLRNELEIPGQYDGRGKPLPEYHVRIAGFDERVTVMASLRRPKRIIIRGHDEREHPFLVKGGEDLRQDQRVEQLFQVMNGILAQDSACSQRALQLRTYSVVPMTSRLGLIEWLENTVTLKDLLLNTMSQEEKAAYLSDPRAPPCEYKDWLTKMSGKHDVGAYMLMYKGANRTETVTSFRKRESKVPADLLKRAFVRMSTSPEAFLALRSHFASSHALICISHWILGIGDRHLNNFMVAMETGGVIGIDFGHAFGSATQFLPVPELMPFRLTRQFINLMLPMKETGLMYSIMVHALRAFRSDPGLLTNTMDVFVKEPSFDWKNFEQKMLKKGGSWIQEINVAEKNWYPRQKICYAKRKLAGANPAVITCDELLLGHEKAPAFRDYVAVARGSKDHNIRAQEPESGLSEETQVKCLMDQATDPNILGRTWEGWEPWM
UniProt P13010: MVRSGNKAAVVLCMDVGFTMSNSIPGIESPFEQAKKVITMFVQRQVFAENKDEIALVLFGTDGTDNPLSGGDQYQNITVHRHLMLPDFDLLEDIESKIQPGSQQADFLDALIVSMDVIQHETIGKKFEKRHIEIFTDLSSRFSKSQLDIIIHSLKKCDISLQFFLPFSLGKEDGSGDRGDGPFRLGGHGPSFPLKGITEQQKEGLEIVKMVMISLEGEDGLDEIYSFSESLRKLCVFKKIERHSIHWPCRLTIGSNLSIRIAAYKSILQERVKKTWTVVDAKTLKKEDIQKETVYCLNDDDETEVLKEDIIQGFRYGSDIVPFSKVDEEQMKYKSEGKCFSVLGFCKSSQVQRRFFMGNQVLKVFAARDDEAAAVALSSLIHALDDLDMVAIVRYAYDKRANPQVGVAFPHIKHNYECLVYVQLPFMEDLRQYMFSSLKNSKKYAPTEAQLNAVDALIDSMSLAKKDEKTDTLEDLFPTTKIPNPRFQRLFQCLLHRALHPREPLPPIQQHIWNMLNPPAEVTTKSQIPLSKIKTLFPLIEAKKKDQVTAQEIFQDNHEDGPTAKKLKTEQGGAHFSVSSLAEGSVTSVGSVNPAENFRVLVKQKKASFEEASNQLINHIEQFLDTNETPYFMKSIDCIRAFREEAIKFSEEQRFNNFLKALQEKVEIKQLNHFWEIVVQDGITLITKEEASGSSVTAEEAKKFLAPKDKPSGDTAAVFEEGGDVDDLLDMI
UniProt P53396: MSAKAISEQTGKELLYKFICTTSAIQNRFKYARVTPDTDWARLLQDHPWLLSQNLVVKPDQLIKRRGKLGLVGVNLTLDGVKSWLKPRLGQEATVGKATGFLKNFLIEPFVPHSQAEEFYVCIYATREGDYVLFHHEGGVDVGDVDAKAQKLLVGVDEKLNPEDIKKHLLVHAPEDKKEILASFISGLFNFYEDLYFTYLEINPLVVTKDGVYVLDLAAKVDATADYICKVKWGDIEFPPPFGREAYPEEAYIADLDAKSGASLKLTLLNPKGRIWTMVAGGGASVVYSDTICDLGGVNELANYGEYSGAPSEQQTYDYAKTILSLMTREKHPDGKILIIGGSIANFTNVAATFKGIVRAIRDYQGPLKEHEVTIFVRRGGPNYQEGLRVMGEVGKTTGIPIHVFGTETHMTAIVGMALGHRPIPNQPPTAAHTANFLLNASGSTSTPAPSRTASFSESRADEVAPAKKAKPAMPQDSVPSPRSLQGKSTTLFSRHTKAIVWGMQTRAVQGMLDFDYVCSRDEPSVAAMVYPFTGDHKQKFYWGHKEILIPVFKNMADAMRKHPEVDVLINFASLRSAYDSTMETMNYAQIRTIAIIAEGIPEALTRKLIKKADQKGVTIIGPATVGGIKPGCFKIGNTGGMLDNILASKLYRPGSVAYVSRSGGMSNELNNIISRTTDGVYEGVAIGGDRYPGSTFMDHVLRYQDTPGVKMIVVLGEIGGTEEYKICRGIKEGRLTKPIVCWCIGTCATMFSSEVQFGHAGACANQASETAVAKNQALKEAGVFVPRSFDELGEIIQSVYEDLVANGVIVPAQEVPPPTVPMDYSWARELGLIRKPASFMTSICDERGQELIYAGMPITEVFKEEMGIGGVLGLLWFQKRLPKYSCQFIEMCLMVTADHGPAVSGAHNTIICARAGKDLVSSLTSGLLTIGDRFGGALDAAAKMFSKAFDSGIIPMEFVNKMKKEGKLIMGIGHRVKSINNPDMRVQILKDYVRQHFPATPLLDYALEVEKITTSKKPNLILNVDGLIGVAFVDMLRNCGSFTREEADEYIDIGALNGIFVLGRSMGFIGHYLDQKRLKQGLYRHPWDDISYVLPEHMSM

[2] = molecular target: T2, GST-L4-33K fusion protein (adenovirus L4-33K) (human adenovirus (serotype not stated for this construct)) (UniProt P24940); experiment: pull-down; 5 µg purified GST-L4-33K (or GST) mixed with 1 mg HeLa nuclear extract or adenovirus late infected nuclear extract in 500 µL 60% Buffer D, Glutathione Sepharose 4B, 2 h at 4°C, five washes; SDS-PAGE, colloidal CBB staining, visible bands identified by mass spectrometry; only the target purified
T2 sequence: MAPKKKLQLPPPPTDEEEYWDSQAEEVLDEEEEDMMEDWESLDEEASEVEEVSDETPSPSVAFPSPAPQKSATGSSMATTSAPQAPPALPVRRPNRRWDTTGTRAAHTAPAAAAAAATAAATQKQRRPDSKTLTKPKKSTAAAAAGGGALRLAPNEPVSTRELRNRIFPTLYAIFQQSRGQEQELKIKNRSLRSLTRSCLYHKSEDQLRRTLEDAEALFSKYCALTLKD

Ku70 (from UniProt P12956 1-609) was tested, and the binding [1] was “no binding” and the binding [2] was “no binding”.

For “DNA-dependent protein kinase catalytic subunit (from UniProt P78527 1-4128) (enzyme)”, the binding [1] was “binds” and the binding [2] was “binds”.

For Ku86 (from UniProt P13010 1-732), the binding [1] was “no binding” and the binding [2] was “no binding”.

For “ATP-citrate lyase (from UniProt P53396 1-1101) (enzyme)”, the binding [2] was “binds”.

B1: Aldolase A (enzyme, UniProt P04075 1-364)
chain: MPYQYPALTPEQKKELSDIAHRIVAPGKGILAADESTGSIAKRLQSIGTENTEENRRFYRQLLLTADDRVNPCIGGVILFHETLYQKADDGRPFPQVIKSKGGVVGIKVDKGVVPLAGTNGETTTQGLDGLSERCAQYKKDGADFAKWRCVLKIGEHTPSALAIMENANVLARYASICQQNGIVPIVEPEILPDGDHDLKRCQYVTEKVLAAVYKALSDHHIYLEGTLLKPNMVTPGHACTQKFSHEEIAMATVTALRRTVPPAVTGITFLSGGQSEEEASINLNAINKCPLLKPWALTFSYGRALQASALKAWGGKKENLKAAQEEYVKRALANSLACQGKYTPSGQAGAAASESLFVSNHAY
B1 was tested, and the binding [2] was “binds”.

From PMC3283702
